Results reported in patent US7683035B1, “Method of stabilizing and/or isolating nucleic acids” (Qiagen, GmbH, priority 1999, dated 2010).

What was measured:
HeLa RNA = test: Example 13: isolation of pure HeLa RNA by complexing, silica spin column; conditions: 25 μg HeLa RNA employed
[1] = system: radiolabelled in vitro transcript of the mouse Evx gene in plasma; test: Example 4 Experiment A: isolation of radiolabelled RNA transcript from plasma, sedimentation at 10,000×g and silica spin column
[2] = system: radiolabelled in vitro transcript of the mouse Evx gene in plasma; test: Example 4 Experiment B: sedimentation of RNA/cationic compound complexes from 1 ml plasma at about 4,500×g
[3] = substance concentration 9% (w/v)
[4] = substance concentration 15% (w/v)
[5] = 0 μg carrier, 4 volumes […] solution, 140 μl plasma

Compound: CCCCCCCCCC[N+](C)(C)CC[N+](C)(C)CCCCCCCCCC.O=S([O-])([O-])=S [Ethanediyl-1,2-bis(dimethyldecylammonium thiosulfate)]
- Yield of HeLa RNA in the eluate (HeLa RNA; substance concentration 1% (w/v)): 24.5 µg
- Yield of HeLa RNA in the eluate (HeLa RNA; [3]): 25 µg
- Yield of HeLa RNA in the eluate (HeLa RNA; [4]): 24 µg

Compound: CCCCCCCCCC[N+](C)(C)CC[N+](C)(C)CCCCCCCCCC.O=S(=O)([O-])[O-] [Ethanediyl-1,2-bis(dimethyldecylammonium sulfate)]
- Yield of HeLa RNA in the eluate (HeLa RNA; [3]): 25 µg
- Yield of HeLa RNA in the eluate (HeLa RNA; [4]): 22.4 µg

Compound: tetradecyltrimethylammonium oxalate
- RNA in eluate (%) [1, 5]: 3%
- RNA in supernatant (%) [1, 5]: 83%
- RNA in eluate (%) ([1]; 2.5 μg carrier): 13%
- RNA in supernatant (%) ([1]; 2.5 μg carrier): 79%
- RNA in eluate (%) ([1]; 5 μg carrier): 26%
- RNA in supernatant (%) ([1]; 5 μg carrier): 63%
- RNA in eluate (%) ([1]; 7.5 μg carrier): 39%
- RNA in supernatant (%) ([1]; 7.5 μg carrier): 49%
- RNA in eluate (%) ([1]; 10 μg carrier): 55%
- RNA in supernatant (%) ([1]; 10 μg carrier): 30%
- RNA in eluate (%) ([1]; 25 μg carrier): 75%
- RNA in supernatant (%) ([1]; 25 μg carrier): 5%
- Amount of radiolabelled RNA (%) in the sediment ([2]; 50 μg of carrier, centrifugation time 10 min): 22%
- Amount of radiolabelled RNA (%) in the sediment ([2]; 50 μg of carrier, centrifugation time 20 min): 31%
- Amount of radiolabelled RNA (%) in the sediment ([2]; 50 μg of carrier, centrifugation time 30 min): 36%
- Amount of radiolabelled RNA (%) in the sediment ([2]; 50 μg of carrier, centrifugation time 40 min): 46%
- Amount of radiolabelled RNA (%) in the sediment ([2]; 100 μg of carrier, centrifugation time 20 min): 79%
- Amount of radiolabelled RNA (%) in the sediment ([2]; 100 μg of carrier, centrifugation time 40 min): 89%
- Amount of radiolabelled RNA (%) in the sediment ([2]; 150 μg of carrier, centrifugation time 20 min): 84%
- Amount of radiolabelled RNA (%) in the sediment ([2]; 150 μg of carrier, centrifugation time 40 min): 91%
